Data from EP2284541A1, “Fluorescence-based imaging and analysis of cells and cellular components using lipophilic dyes with improved specificity, spectral property and photostability” (Max-Planck-Gesellschaft zur Förderung der Wissenschaften …, priority 2009, dated 2011).

Assay: Comparative spectral analysis: excitation efficiency and collected emission at given laser lines and filters
Assay type: physicochemical

Question: For `CC1=C2C=C3CCCCC3=[N+]2[B-](F)(F)n2c1cc1c2CCCC1` [LD540], which “collected fluorescence, of total emission” value (BP475-515 nm emission filter) is on record?
Answer: negligible amount

Question: What about the “collected light, of total emission” value (LP560 nm filter) of the same compound?
Answer: 37%

Question: And the excitation efficiency (excitation at 458 nm)?
Answer: 5%

Question: What about the excitation efficiency (excitation at 532 nm) of the same compound?
Answer: 68%

Question: And the excitation efficiency (excitation at 543 nm)?
Answer: 93%
